Data as given in PubChem BioAssay AID1053209 (Peter MacCallum Cancer Centre, 2014).
This is one part, drawn at random, of about 1,580 reagents. 207 of all reagents (13%) count as active. 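Rows are single siRNAs; four siRNAs per gene were tested, a gene counting as confirmed only when at least two agree.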 Unmarked entries are inactive. Reagents against one gene are numbered here.

Aim: 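Knock-downs that sensitise mouse osteosarcoma cells to doxorubicin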 (follow-up of hits)
Cells: mouse primary osteosarcoma cells
Reagent: single siRNA against mouse genes, 25 nM (text also states 40 nM)
Duration: about 120 h (48 h before drug, then 72 h with drug)
Conditions: doxorubicin 100 nM (about IC30-40), added 48 h after transfection, for 72 h
Read-out: 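Viability measured by ATP luminescence with and without doxorubicin, each replicate scaled to non-targeting siRNA NT1, averaged over two replicates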
Scale: viability with doxorubicin, vs NT1: higher = more viable cells under doxorubicin; viability ratio, doxorubicin over no drug: higher = less sensitisation to doxorubicin; viability without drug, vs NT1: higher = more viable cells without drug
Active means: 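Counted as active (class LC dox) if viability falls to 0.7 of NT1 or below under doxorubicin but stays within 0.7 to 1.1 without drug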

| Gene | reagent | combined effect class | viability with doxorubicin, vs NT1 | viability ratio, doxorubicin over no drug | viability without drug, vs NT1 |
| --- | --- | --- | --- | --- | --- |
| Nup54 | 1 | low viability with and without drug | 0.7 | 1.06 | 0.66 |
| Nup54 | 2 | normal viability with and without drug | 0.92 | 0.96 | 0.96 |
| Nup54 | 3 | low viability only with doxorubicin; normal without drug (active) | 0.46 | 0.61 | 0.76 |
| Nup54 | 4 | low viability with and without drug | 0.58 | 1 | 0.58 |
| Prpf8 | 1 | low viability with and without drug | 0.34 | 0.56 | 0.61 |
| Prpf8 | 2 | low viability with and without drug | 0.46 | 0.84 | 0.55 |
| Prpf8 | 3 | normal viability with and without drug | 0.92 | 0.94 | 0.98 |
| Prpf8 | 4 | low viability with and without drug | 0.26 | 0.48 | 0.54 |

A portion from the list above, for reference:
| Gene | reagent | combined effect class | viability with doxorubicin, vs NT1 | viability ratio, doxorubicin over no drug | viability without drug, vs NT1 |
| --- | --- | --- | --- | --- | --- |
| Nup54 | 4 | low viability with and without drug | 0.58 | 1 | 0.58 |
| Prpf8 | 1 | low viability with and without drug | 0.34 | 0.56 | 0.61 |
| Prpf8 | 2 | low viability with and without drug | 0.46 | 0.84 | 0.55 |
| Prpf8 | 3 | normal viability with and without drug | 0.92 | 0.94 | 0.98 |

Next records:
| Gene | reagent | combined effect class | viability with doxorubicin, vs NT1 | viability ratio, doxorubicin over no drug | viability without drug, vs NT1 |
| --- | --- | --- | --- | --- | --- |
| Ikzf4 | 1 | normal viability with and without drug | 1.06 | 1.01 | 1.05 |
| Ikzf4 | 2 | high viability only with doxorubicin | 1.12 | 1.11 | 1.01 |
| Ikzf4 | 3 | normal viability with and without drug | 1.04 | 1.13 | 0.92 |
| Ikzf4 | 4 | normal viability with and without drug | 0.98 | 1.14 | 0.86 |
| Nup214 | 1 | normal viability with and without drug | 0.74 | 0.92 | 0.8 |
| Nup214 | 2 | low viability with and without drug | 0.52 | 0.87 | 0.6 |
| Nup214 | 3 | low viability with and without drug | 0.55 | 0.89 | 0.62 |
| Nup214 | 4 | low viability with and without drug | 0.6 | 0.88 | 0.68 |
| Rps3a1 | 1 | low viability with and without drug | 0.11 | 0.61 | 0.18 |
| Rps3a1 | 2 | low viability with and without drug | 0.26 | 1 | 0.26 |
| Rps3a1 | 3 | low viability with and without drug | 0.21 | 0.62 | 0.34 |
| Rps3a1 | 4 | low viability with and without drug | 0.15 | 0.31 | 0.48 |
| Socs5 | 1 | normal viability with and without drug | 0.99 | 1.01 | 0.98 |
| Socs5 | 2 | normal viability with and without drug | 1.06 | 1.08 | 0.98 |
| Socs5 | 3 | normal viability with and without drug | 1.09 | 1.09 | 1 |
| Socs5 | 4 | normal viability with and without drug | 0.82 | 0.96 | 0.85 |
